{"source": "paper PMC11725929", "binders": {"B1": {"name": "Endonuclease G (protein, UniProt O08600 45-294)", "chain": "ADLPALPGGPAGGTGELAKYGLPGVAQLRSRESYVLSYDPRTRGALWVLEQLRPERLRGDGDRSACDFREDDSVHAYHRATNADYRGSGFDRGHLAAAANHRWSQRAMDDTFYLSNVAPQVPHLNQNAWNNLERYSRSLTRTYQNVYVCTGPLFLPRTEADGKSYVKYQVIGKNHVAVPTHFFKVLILEAAGGQIELRSYVMPNAPVDETIPLERFLVPIESIERASGLLFVPNILARAGNLKAITAGSK"}}, "target": "T1, RNA helicase DHX30 (UniProt Q99PU8)", "T1 sequence": "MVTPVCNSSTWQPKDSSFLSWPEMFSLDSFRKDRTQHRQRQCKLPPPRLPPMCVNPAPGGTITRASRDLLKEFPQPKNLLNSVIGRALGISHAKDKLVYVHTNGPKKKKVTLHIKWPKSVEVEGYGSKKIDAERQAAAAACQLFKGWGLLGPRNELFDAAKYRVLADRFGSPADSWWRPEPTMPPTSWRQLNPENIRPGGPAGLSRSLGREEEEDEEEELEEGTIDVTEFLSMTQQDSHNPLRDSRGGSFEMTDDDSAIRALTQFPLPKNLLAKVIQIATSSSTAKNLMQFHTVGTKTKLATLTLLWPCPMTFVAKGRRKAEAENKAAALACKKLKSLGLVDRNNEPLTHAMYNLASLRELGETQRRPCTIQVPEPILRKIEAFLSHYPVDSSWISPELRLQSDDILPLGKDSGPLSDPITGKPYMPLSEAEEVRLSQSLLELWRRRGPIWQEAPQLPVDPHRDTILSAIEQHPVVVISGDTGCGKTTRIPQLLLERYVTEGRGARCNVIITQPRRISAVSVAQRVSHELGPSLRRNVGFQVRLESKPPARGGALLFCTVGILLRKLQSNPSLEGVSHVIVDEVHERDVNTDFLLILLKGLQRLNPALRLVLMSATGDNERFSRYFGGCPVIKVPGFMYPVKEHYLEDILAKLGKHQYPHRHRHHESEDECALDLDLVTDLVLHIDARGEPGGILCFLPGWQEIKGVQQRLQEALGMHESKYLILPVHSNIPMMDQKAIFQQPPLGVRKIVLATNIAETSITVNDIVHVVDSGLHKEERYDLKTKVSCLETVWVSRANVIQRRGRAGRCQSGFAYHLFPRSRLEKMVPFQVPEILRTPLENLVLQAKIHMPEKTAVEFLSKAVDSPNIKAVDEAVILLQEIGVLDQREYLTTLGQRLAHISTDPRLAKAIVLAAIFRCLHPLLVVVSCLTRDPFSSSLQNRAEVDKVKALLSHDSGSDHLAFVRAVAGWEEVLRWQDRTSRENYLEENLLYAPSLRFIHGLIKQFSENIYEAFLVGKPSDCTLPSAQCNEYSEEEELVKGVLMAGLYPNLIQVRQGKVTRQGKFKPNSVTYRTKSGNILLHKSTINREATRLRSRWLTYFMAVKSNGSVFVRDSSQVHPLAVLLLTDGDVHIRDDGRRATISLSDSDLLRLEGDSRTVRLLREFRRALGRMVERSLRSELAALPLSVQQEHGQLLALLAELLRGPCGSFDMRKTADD", "assay": "co-IP; coimmunoprecipitation between EndoG and DHX30; cells, bait, antibodies and buffer not told", "note": "No constants are given. Whether binding was seen depends on the method and setting. Binding seen in cells or lysates may run through a third protein. Some entries that bind do so weakly or less than the wild type."}
{"binder": "B1", "values": [{"measurement": "binding", "result": "binds"}]}
